Test results as given in paper PMC7738880, “Identification of novel CD44v6-binding peptides that block CD44v6 and deliver a pro-apoptotic peptide to tumors to inhibit tumor growth and metastasis in mice” (Theranostics, 2021).
Results are given in words; binding and its absence hold for the method and conditions named. Binding seen in cells or lysates may run through a third protein. Some entries that bind do so weakly or less than the wild type.

Sequences of proteins named here, by UniProt entry; tags and fusion partners are left off. Residues count along the entry.
UniProt P08581, residues 25-1390: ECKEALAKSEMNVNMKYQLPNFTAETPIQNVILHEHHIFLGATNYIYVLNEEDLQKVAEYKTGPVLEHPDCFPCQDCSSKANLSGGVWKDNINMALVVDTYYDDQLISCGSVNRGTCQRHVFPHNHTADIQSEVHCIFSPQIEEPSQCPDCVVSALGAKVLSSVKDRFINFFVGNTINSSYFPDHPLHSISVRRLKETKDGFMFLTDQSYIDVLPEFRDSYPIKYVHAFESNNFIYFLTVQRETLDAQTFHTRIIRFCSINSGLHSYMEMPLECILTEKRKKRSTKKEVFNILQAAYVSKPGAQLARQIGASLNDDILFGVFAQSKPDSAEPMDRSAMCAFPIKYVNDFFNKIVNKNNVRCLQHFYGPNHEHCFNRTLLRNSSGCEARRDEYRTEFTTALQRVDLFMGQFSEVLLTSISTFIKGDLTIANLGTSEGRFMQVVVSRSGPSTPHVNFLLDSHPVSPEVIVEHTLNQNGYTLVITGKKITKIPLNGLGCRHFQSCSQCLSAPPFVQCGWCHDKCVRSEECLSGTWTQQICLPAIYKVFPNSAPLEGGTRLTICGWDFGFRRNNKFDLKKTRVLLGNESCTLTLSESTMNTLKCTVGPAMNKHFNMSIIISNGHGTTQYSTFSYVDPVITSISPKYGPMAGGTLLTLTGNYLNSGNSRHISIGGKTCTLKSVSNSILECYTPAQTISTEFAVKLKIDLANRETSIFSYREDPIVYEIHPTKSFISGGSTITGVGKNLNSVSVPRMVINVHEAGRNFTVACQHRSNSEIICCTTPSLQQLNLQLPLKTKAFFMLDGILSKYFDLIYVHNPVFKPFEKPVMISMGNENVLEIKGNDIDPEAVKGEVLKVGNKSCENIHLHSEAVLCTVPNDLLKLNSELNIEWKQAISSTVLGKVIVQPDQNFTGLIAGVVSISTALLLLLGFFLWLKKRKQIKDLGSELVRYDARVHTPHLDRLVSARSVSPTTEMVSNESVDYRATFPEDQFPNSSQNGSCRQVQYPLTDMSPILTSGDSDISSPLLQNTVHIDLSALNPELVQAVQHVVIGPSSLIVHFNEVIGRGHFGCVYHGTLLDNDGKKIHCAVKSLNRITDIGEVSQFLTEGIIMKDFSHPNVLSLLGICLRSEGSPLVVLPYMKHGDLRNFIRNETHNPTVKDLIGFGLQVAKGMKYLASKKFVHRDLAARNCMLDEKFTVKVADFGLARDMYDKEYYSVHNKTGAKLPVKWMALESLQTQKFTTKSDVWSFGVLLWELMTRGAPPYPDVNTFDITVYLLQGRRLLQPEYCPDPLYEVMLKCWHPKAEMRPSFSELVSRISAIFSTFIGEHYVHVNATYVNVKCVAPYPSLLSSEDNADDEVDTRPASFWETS

Assays:
biotin-labeled NLN (…) = molecular target: T1, biotin-labeled NLN (…); assay: pull-down; biotinylated peptide (25 µM) on streptavidin magnetic beads incubated with MDA-MB231 cell lysate at room temperature 30-60 min; eluted with 2 mM D-biotin; immunoblot with anti-CD44v6, anti-c-Met and anti-CD44 antibodies; only the target purified
T1 sequence (peptide, biotin at the amino-terminus): CNLNTIDTC

biotin-labeled NEW (…) = molecular target: T2, biotin-labeled NEW (…); assay: as above
T2 sequence (peptide, biotin at the amino-terminus): CNEWQLKSC

In the case of “c-Met receptor tyrosine kinase, endogenous in MDA-MB231 cells (from UniProt P08581 25-1390)”, the binding (biotin-labeled NLN (…)) is reported as “binds” and the binding (biotin-labeled NEW (…)) is reported as “no binding”.
